Laboratory results: article PMC7886320
Results are given in words; binding and its absence hold for the method and conditions named. Where a sequence is shown, tags or fusion partners need not be part of it.

Biological target: T1, His-tagged ExoU (Pseudomonas aeruginosa exotoxin U) (Pseudomonas aeruginosa), O34208
T1 chain: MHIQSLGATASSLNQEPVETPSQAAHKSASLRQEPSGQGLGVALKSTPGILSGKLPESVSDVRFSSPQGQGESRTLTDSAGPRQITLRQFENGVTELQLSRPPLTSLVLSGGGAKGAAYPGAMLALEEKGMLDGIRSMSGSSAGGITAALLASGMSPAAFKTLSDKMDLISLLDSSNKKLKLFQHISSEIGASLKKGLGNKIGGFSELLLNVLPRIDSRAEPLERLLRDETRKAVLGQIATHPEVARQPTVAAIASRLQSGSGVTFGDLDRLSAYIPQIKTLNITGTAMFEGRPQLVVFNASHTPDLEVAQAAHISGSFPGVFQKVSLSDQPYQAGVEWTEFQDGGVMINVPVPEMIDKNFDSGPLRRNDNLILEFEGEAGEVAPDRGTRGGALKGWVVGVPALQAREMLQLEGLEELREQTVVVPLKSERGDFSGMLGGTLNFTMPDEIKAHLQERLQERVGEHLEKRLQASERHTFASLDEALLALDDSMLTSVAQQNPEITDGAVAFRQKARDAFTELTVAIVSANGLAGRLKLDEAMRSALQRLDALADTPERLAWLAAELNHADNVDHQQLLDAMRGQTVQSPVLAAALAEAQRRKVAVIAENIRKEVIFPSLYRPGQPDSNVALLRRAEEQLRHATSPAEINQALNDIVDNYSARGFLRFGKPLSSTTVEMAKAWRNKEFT
Experiment: SEC; purified His-ExoU alone, with reference to a series of molecular mass standards; 16/600 Superdex 200 in 20 mM Tris-HCl pH 8.2, 100 mM NaCl, 10% (v/v) glycerol; no PIP2; both purified
Conditions: remark: other sources report otherwise

B1: His-tagged ExoU (Pseudomonas aeruginosa exotoxin U), O34208 1-687 (enzyme)
chain: MHIQSLGATASSLNQEPVETPSQAAHKSASLRQEPSGQGLGVALKSTPGILSGKLPESVSDVRFSSPQGQGESRTLTDSAGPRQITLRQFENGVTELQLSRPPLTSLVLSGGGAKGAAYPGAMLALEEKGMLDGIRSMSGSSAGGITAALLASGMSPAAFKTLSDKMDLISLLDSSNKKLKLFQHISSEIGASLKKGLGNKIGGFSELLLNVLPRIDSRAEPLERLLRDETRKAVLGQIATHPEVARQPTVAAIASRLQSGSGVTFGDLDRLSAYIPQIKTLNITGTAMFEGRPQLVVFNASHTPDLEVAQAAHISGSFPGVFQKVSLSDQPYQAGVEWTEFQDGGVMINVPVPEMIDKNFDSGPLRRNDNLILEFEGEAGEVAPDRGTRGGALKGWVVGVPALQAREMLQLEGLEELREQTVVVPLKSERGDFSGMLGGTLNFTMPDEIKAHLQERLQERVGEHLEKRLQASERHTFASLDEALLALDDSMLTSVAQQNPEITDGAVAFRQKARDAFTELTVAIVSANGLAGRLKLDEAMRSALQRLDALADTPERLAWLAAELNHADNVDHQQLLDAMRGQTVQSPVLAAALAEAQRRKVAVIAENIRKEVIFPSLYRPGQPDSNVALLRRAEEQLRHATSPAEINQALNDIVDNYSARGFLRFGKPLSSTTVEMAKAWRNKEFT
  binding: no binding
